Results: publication PMC5619949
No constants are given. Whether binding was seen depends on the method and setting. Binding seen in cells or lysates may run through a third protein. Some binding calls cover weakened binding; strength is not graded here.

Sequences of proteins named here, by UniProt entry; tags and fusion partners are left off.
UniProt O75400: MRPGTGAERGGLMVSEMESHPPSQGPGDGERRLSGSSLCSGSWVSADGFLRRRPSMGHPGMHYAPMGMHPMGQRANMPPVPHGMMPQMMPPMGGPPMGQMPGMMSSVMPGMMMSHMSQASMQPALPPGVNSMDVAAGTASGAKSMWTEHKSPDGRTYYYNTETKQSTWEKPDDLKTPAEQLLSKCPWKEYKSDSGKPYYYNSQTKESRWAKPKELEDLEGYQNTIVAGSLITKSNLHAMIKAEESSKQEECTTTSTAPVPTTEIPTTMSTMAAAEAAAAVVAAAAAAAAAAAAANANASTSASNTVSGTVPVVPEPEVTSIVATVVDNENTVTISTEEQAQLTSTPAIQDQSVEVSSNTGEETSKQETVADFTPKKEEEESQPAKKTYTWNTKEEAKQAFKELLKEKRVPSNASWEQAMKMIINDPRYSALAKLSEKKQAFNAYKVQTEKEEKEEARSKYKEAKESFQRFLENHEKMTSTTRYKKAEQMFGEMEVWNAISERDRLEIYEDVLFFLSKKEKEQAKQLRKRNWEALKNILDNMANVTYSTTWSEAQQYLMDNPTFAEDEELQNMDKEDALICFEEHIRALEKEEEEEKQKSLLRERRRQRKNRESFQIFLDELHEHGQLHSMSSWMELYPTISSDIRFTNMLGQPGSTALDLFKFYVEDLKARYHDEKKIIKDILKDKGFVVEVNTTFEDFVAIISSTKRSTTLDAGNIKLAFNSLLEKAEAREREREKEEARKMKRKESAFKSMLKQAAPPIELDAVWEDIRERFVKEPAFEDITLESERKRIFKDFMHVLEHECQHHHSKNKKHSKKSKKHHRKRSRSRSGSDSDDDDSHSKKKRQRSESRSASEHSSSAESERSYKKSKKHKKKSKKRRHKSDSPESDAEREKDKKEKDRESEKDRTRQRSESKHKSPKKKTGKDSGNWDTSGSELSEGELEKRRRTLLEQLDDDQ
UniProt Q13435: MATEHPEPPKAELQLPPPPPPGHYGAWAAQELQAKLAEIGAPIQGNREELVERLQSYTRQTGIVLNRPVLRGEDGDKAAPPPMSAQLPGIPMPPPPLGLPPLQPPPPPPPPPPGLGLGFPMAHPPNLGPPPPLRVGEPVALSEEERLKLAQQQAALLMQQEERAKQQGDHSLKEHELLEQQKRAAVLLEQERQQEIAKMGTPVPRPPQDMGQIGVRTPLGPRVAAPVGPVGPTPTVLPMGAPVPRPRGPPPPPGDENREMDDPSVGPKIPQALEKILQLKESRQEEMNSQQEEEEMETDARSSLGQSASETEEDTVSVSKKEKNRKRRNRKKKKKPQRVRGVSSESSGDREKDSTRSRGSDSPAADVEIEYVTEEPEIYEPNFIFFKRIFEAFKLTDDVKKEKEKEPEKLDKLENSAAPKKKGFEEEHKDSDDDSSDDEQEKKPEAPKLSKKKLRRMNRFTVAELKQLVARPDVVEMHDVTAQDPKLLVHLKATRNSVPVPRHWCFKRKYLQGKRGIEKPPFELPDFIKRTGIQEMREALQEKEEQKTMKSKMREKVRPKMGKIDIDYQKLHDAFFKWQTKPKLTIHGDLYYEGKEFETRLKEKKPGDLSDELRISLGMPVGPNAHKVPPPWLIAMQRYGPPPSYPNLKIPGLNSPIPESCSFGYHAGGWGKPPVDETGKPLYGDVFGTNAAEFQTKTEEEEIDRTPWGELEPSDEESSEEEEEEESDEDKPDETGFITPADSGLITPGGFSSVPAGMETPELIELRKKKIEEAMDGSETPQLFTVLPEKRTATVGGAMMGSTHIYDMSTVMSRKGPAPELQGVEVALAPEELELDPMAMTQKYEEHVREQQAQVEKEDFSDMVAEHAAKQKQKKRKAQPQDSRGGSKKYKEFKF

Biological target: GFP-PRPF40A (UniProt O75400)
Test: co-IP; GFP-Trap magnetic beads added to cleared lysate of HEK293 cells stably expressing GFP-PRPF40A; cells treated with DMSO or 20 µM hinokiflavone for 8 hr; Co-IP buffer (1 mM EDTA, 100 µM Na3VO4, 0.5% Triton X-100, 20 mM beta-Glycerol P), overnight at 4°C; western blot

binding: binds
Substance: SF3B2 (from UniProt Q13435 1-895)
